Data taken from publication doi:10.1101/2020.05.19.105320.
No constants are given. Whether binding was seen depends on the method and setting. Binding seen in cells or lysates may run through a third protein. Some results given as binding are weak or reduced against the parent protein; the word gives no strength. For part of these data: Sequences can lack the tags named with a protein.

By UniProt entry, the sequences of proteins in these tests, tags left out. Residues count along the entry.
UniProt O76031, residues 57-633: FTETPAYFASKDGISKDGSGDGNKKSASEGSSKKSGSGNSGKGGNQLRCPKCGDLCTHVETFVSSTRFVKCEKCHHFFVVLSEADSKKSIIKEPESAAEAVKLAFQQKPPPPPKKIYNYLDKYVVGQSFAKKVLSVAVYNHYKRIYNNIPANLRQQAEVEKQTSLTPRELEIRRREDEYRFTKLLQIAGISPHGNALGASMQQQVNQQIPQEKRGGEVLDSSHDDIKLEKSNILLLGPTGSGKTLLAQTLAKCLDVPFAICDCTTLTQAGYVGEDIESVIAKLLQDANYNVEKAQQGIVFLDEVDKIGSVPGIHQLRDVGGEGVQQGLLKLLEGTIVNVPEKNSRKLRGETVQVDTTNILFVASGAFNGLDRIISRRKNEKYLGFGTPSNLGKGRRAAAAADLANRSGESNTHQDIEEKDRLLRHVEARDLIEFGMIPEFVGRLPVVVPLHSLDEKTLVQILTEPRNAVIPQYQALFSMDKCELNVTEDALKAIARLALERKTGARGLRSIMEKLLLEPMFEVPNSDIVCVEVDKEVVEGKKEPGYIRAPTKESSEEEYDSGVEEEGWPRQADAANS
UniProt P0A6H1, residues 2-52: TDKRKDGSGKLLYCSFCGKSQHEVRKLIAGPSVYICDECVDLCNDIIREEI

Tests used:
[1] = target: T1, Polymerase δ interacting protein of 38 kDa (PDIP38), endogenous (human (endogenous in HeLa)) (UniProt Q9Y2S7); assay: co-IP
T1 sequence: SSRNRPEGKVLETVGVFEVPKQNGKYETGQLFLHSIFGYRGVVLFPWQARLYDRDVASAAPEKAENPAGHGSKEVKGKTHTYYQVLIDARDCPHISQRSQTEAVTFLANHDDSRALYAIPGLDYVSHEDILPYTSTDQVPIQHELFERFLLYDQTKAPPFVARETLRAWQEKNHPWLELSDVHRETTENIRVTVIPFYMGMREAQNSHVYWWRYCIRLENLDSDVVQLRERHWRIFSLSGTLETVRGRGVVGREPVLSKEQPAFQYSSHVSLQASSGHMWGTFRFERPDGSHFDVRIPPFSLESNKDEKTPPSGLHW

[2] = target: CLPX, endogenous (human (endogenous in HeLa)) (UniProt O76031); assay: co-IP
[3] = target: Escherichia coli ClpX (ecClpX) ZBD (ecZBD), H10-tagged (Escherichia coli) (UniProt P0A6H1); assay: pull-down

CLPX, endogenous (from UniProt O76031 57-633)
binding [1]: binds

B1: Polymerase δ interacting protein of 38 kDa (PDIP38), endogenous (protein, UniProt Q9Y2S7 52-368)
chain: SSRNRPEGKVLETVGVFEVPKQNGKYETGQLFLHSIFGYRGVVLFPWQARLYDRDVASAAPEKAENPAGHGSKEVKGKTHTYYQVLIDARDCPHISQRSQTEAVTFLANHDDSRALYAIPGLDYVSHEDILPYTSTDQVPIQHELFERFLLYDQTKAPPFVARETLRAWQEKNHPWLELSDVHRETTENIRVTVIPFYMGMREAQNSHVYWWRYCIRLENLDSDVVQLRERHWRIFSLSGTLETVRGRGVVGREPVLSKEQPAFQYSSHVSLQASSGHMWGTFRFERPDGSHFDVRIPPFSLESNKDEKTPPSGLHW
binding [2]: binds

B2: GST-PDIP38 (protein, UniProt Q9Y2S7 52-368)
chain: SSRNRPEGKVLETVGVFEVPKQNGKYETGQLFLHSIFGYRGVVLFPWQARLYDRDVASAAPEKAENPAGHGSKEVKGKTHTYYQVLIDARDCPHISQRSQTEAVTFLANHDDSRALYAIPGLDYVSHEDILPYTSTDQVPIQHELFERFLLYDQTKAPPFVARETLRAWQEKNHPWLELSDVHRETTENIRVTVIPFYMGMREAQNSHVYWWRYCIRLENLDSDVVQLRERHWRIFSLSGTLETVRGRGVVGREPVLSKEQPAFQYSSHVSLQASSGHMWGTFRFERPDGSHFDVRIPPFSLESNKDEKTPPSGLHW
binding [3]: no binding
